Literature values in patent US20230358726A1, “NON-INVASIVE FUNCTIONAL COMPANION ASSAYS FOR ONCOGENE TARGETED THERAPY FOR BRAIN CANCER” (The Regents of the University of California, priority 2020, published 2023).
Some results were stated once for a whole list of compounds, not compound by compound.

Settings: cited from earlier work

## C#Cc1cccc(Nc2ncnc3cc(OCCOC)c(OCCOC)cc23)c1 [Erlotinib]
  brain plasma concentrations following therapy, % of the starting dose: 6-11%
